# In US6849271B2, “Microcapsule matrix microspheres, absorption-enhancing pharmaceutical compositions and methods” (Verion, Inc., priority 2001, dated 2005):
# Values joined by “and” are separate entries in the source; they are usually repeats but may differ in a detail not shown here. Identical values can stand only once.
# Experiments:
# [1] = cited from earlier work
# [2] = Pharmacokinetic profiles of nifedipine formulations in male rats (first study); conditions: individual rats
compound,measurement,setting,value
"COC(=O)C1=C(C)NC(C)=C(C(=O)OC)C1c1ccccc1[N+](=O)[O-] [nifedipine, 1,4-Dihydro-2,6-dimethyl-4-(2-nitrophenyl)-3,5-pyridinedicarboxylic acid dimethyl ester]",absorption from the human gastro-intestinal tract,[1]; human,over 90%
same,systemic bioavailability,[1]; human,45-70%
same,steady state volume of distribution,[1]; in vivo,0.3 to 1.2 L/kg
same,metabolism by oxidation to the pyridine (hydroxycarboxylic acid) metabolite,"[1]; liver, cytochrome P450",70-95%
same,AUCinf,[2]; intravenous 0.1 mg/kg,81.4 ng·h/mL
same,Cmax,[2]; intravenous 0.1 mg/kg,223 ng/mL and 255 ng/mL
same,Cmax,"[2]; male, Sprague-Dawley, rat, in vivo, iv, 0.1 mg/kg, Cmax",230 ng/mL
